Some results were stated once for a whole list of compounds, not compound by compound. Bridge positions count the residues as written; N and C are the ends. Peptide text beside a SMILES is read from it.
Experiment: Solubility from the time required for dissolution in PBS
Format: physicochemical
Conditions: 10 mg added to 1.0 mL of PBS, stirred at 25° C.

C[C@@H]1NC(=O)[C@@H]2CCCN2C(=O)[C@H](CC(N)=O)NC(=O)[C@@H]2CSSC[C@H](N)C(=O)N[C@H]3CSSC[C@H](NC1=O)C(=O)N[C@@H]([C@@H](C)O)C(=O)NCC(=O)N[C@H](C(=O)N[C@@H](Cc1ccc(O)cc1)C(=O)O)CSSC[C@H](NC(=O)[C@H](Cc1ccc(O)cc1)NC(=O)[C@H](CCC(=O)O)NC3=O)C(=O)N2 [Linaclotide] (H-CCEYCCNPACTGCY-OH; disulfide 1-6, 2-10, 5-13)
time required for dissolution: > 15 min
